The assay is described as follows: qHTS Assay for Modulators of Lamin A Splicing. To be noted: HeLa LMNA splicing GFP/RFP minigene ratio, 48 h. The essentials: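 Read-out is the ratio of GFP to DsRed2 object intensity, acquired by 488 nm laser-scanning cytometry on HeLa lamin A-EGFP minigene reporter cells. Compound incubation 48 hrs at 37 °C in Opti-MEM with 2% FBS; DMSO 0.5% final.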
On the technique in general: In qHTS, concentration-response curves come from the screen itself.

[1] abbreviates: measured here: RFP viability control channel.
Setting [2] is: measured here: GFP splicing reporter channel.

In PubChem BioAssay AID1487 (National Center for Advancing Translational Sciences (NCATS), 2009) one finds AC50 data, which are given here for 54 molecules.

Each structure is given as a SMILES string. Values joined by “and” are separate entries in the source; they are usually repeats but may differ in a detail not shown here. Equal entries are not always repeated. Some of the results follow. Further columns of the screen follow, without active or inactive calls. Compounds called inactive in the main read-out are mostly missing here. Words in brackets tell the shape of the fitted curve; partial curves, single points and poor fits give uncertain potencies.

By AC50 is commonly meant the concentration giving half of the maximal activity seen. For `CC1=C/C(=N\S(=O)(=O)c2ccccc2)C(C(C)C)=CC1=O`, the AC50 under setting [1] is 31.6 µM [rising, partial curve].

As for `COc1cccc(OC)c1C(=O)Oc1ccc2c(c1)O/C(=C\c1ccncc1)C2=O`, the AC50 under setting [1] was 35.5 µM [falling, single point].

Turning to `O=C(c1cccc(S(=O)(=O)N2CCc3ccccc32)c1)N1CCN(c2ccccn2)CC1`, the AC50 is 5.62 µM [falling, single point] under setting [2] and 20 µM [rising, partial curve, poor fit] under setting [1].

`COC(=O)c1ccc(NC(=O)C(=O)N2CCN(C(=S)Nc3ccc(OC)cc3)CC2)cc1`: the concentration at half-maximal activity (AC50) under setting [1] was 14.1 µM [rising, single point].

For `O=C1NCCN(Cc2ccc(Cl)c(F)c2)C1CC(=O)N1CCc2ccccc2C1` (configuration not stated), under setting [2], the concentration at half-maximal activity (AC50) is 0.00501 µM [falling, full curve, poor fit].

As to `O=C1c2cccc3cccc(c23)C(=O)N1CC1CCN(CC(O)COCc2ccc3c(c2)OCO3)CC1` (configuration not stated), the AC50 reads like this: under setting [2], 35.5 µM [rising, single point]; under setting [1], 35.5 µM [rising, single point].

As to `O=C(COC(=O)C1CCN(S(=O)(=O)c2ccccc2C(F)(F)F)CC1)NCc1ccc(F)cc1`, the concentration at half-maximal activity (AC50) under setting [1] is 0.01 µM [falling, full curve, poor fit].

Consider `c1cn(-c2ncnc3ccc(-c4ccoc4)cc23)cn1`, for which the concentration at half-maximal activity (AC50) is 2.82 µM [falling, full curve] under setting [2] and 3.55 µM [falling, full curve] under setting [1].

Turning to `COc1cc(C2C(Oc3ccccc3C)C(=O)N2Cc2ccc(F)cc2)cc(OC)c1OC` (configuration not stated), the concentration at half-maximal activity (AC50) under setting [1] was 35.5 µM [rising, single point].

Take `CCn1nc(C)c(NS(=O)(=O)c2ccc(C)cc2)c1C`: the AC50 under setting [1] was 11.2 µM [rising, partial curve].

In the case of `CC(NC(=O)CSc1nc2c(c(C(F)(F)F)n1)CCc1ccccc1-2)c1ccccc1` (configuration not stated), the AC50 reads like this: under setting [2], 17.8 µM [rising, single point]; under setting [1], 22.4 µM [rising, partial curve].

As to `OCCNC(=S)Nc1ccc(Cl)c(Cl)c1`, the AC50 reads like this: under setting [2], 35.5 µM [rising, single point]; under setting [1], 22.4 µM [rising, single point].

For the molecule `Cc1ccc(Cl)cc1NC(=O)c1cc2ccccc2cc1O`, the concentration at half-maximal activity (AC50) under setting [2] was 1.26 µM [falling, single point] and the AC50 under setting [1] is 5.62 µM [rising, single point].

As for `Cc1c(NC(=O)c2cccs2)cccc1-c1nc2ccccc2s1`, the half-maximal activity concentration (AC50) under setting [1] is 0.0355 µM [rising, full curve, poor fit].

Regarding `O=C(NCc1ccc(N2CCCC2=O)cc1)c1ccc(F)cc1`, the AC50 is, setting by setting: under setting [2], 2 µM [rising, partial curve, poor fit]; under setting [1], 2.82 µM [rising, partial curve, poor fit].

Turning to `O=c1[nH]c(=O)n(Cc2ccco2)c2c1C(C(F)(F)F)(C(F)(F)F)N=C(c1ccco1)N2`, the concentration at half-maximal activity (AC50) under setting [1] is 10 µM [rising, partial curve, poor fit].

Regarding `CCOc1ccc(NS(=O)(=O)c2ccc(NS(C)(=O)=O)cc2)cc1`, the AC50 is 17.8 µM [rising, partial curve, poor fit] under setting [2] and 15.8 µM [rising, single point] under setting [1].

As for `CC1(C)O[C@H]2C[C@@H]3[C@H]4CCC5=CC(=O)CC[C@@]5(C)[C@]4(F)[C@@H](O)C[C@@]3(C)[C@@]2(C(=O)CCl)O1`, the concentration at half-maximal activity (AC50) by setting is: under setting [2], 12.6 µM [falling, single point]; under setting [1], 12.6 µM [rising, single point].

As to `CCOC(=O)c1c(-c2ccccc2)oc2ccc(O)c(CN3CCN(C)CC3)c12`, the half-maximal activity concentration (AC50) under setting [2] was 5.01 µM [rising, full curve, poor fit] and the AC50 under setting [1] was 12.6 µM [rising, partial curve].

In the case of `COc1cc(C(=O)Nc2cccc(-c3nnc(-c4ccco4)o3)c2)ccc1OC(C)=O`, the AC50 runs as follows: under setting [2], 0.0126 µM [falling, full curve, poor fit]; under setting [1], 0.0126 µM [falling, full curve, poor fit].

Consider `CCNC(=S)Nc1ccc(OC(F)(F)F)cc1`, for which, under setting [2], the concentration at half-maximal activity (AC50) was 2.82 µM [falling, full curve, poor fit].

Regarding `O=S(=O)(N/N=C/c1ccc2c(c1)OCCO2)c1ccc(Cl)cc1`, the half-maximal activity concentration (AC50) under setting [1] is 6.31 µM [falling, single point].

For the molecule `O=C(Nc1cccc(-c2nc3ccccc3s2)c1)c1cc(-n2cnnc2)ccc1Cl`, the AC50 is, setting by setting: under setting [2], 12.6 µM [rising, partial curve]; under setting [1], 14.1 µM [rising, single point].

For the molecule `COc1cc(/C=N/NC(=O)c2ccc(COc3cc(C)ccc3C(C)C)cc2)cc(OC)c1O`, under setting [1], the AC50 is 35.5 µM [rising, single point].

As to `COc1ccc(CCN(Cc2cc3cccc(C)c3n3nnnc23)C(=O)c2ccncc2)cc1OC`, the concentration at half-maximal activity (AC50) under setting [1] is 7.08 µM [falling, full curve, poor fit].

Take `CCCCc1ccc(NC(=S)NCc2ccc(OC)cc2)cc1`: under setting [1], the half-maximal activity concentration (AC50) is 35.5 µM [falling, partial curve, poor fit].

For `Cc1cc(C)c(S(=O)(=O)Nc2ccc(C(N)=O)cc2)c(C)c1`, under setting [1], the AC50 was 7.94 µM [falling, full curve].

Consider `CC(C)CC(=O)NC1(C(F)(F)F)C(=O)Nc2c1c(=O)n(C)c(=O)n2C` (configuration not stated), for which, under setting [1], the AC50 was 2.51 µM [rising, partial curve, poor fit].

In the case of `Cc1nc(SCC(=O)N(C)Cc2ccco2)c2c(C)c(C)sc2n1`, the AC50 under setting [2] is 12.6 µM [rising, partial curve, poor fit].

In the case of `CCN(CC)c1ccc(N=Cc2ccc(N(CC)CC)cc2O)cc1`, the AC50 under setting [1] was 15.8 µM [rising, single point].

For the molecule `Nc1cc(=O)[nH]c(=O)n1-c1cccc(F)c1`, under setting [2], the AC50 was 0.251 µM [falling, full curve, poor fit].

Turning to `COc1ccc(/C=C/C(=O)Nc2ccc(C34CC5CC(CC(O)(C5)C3)C4)cc2)cc1OC`, under setting [1], the AC50 was 0.891 µM [rising, full curve].

Take `COc1ccc(NC(=O)c2ccc(-c3ccc([N+](=O)[O-])cc3)o2)cc1OC`: the AC50 was 0.00891 µM [rising, full curve, poor fit] under setting [2] and 20 µM [rising, single point] under setting [1].

As to `O=Cc1ccc(OCc2cn3ccccc3n2)cc1`, under setting [1], the concentration at half-maximal activity (AC50) was 0.158 µM [rising, full curve, poor fit].

`Cn1c(=O)c([N+](=O)[O-])c(Oc2ccccc2)c2ccccc21`: the AC50 under setting [2] is 22.4 µM [falling, single point].

On to `O=c1cc(-c2ccc3c(c2)OCCO3)oc2ccc(Cl)cc12`, for which the AC50 under setting [1] was 10 µM [rising, partial curve, poor fit].

With `O=C(Nc1ccc(NC(=O)c2ccccn2)cc1)C(=O)Nc1ccc2c(c1)OCCO2`, the AC50 under setting [1] is 0.1 µM [rising, full curve].

On to `c1coc(CNc2c3c(nc4ccccc24)CCC3)c1`, for which, under setting [1], the AC50 was 22.4 µM [rising, single point].

`Cc1ccc(OCC(=O)n2nc(C)cc2C)c(C)c1`: the AC50 runs as follows: under setting [2], 0.01 µM [falling, full curve, poor fit]; under setting [1], 0.00316 µM [falling, full curve, poor fit].

Consider `O=C(CC12CC3CC(CC(C3)C1)C2)N/N=C/c1ccc([N+](=O)[O-])o1`, for which, under setting [1], the AC50 is 22.4 µM [rising, single point].

With `COc1ccc(N2C(=O)CC(NCCNc3ccc([N+](=O)[O-])cn3)C2=O)cc1` (configuration not stated), under setting [2], the AC50 is 1 µM [rising, partial curve].

For `Cc1c(Cl)cccc1NC(=S)N=Nc1c(O)n(CN2CCOCC2)c2ccccc12`, the AC50 by setting is: under setting [2], 8.91 µM [rising, partial curve]; under setting [1], 11.2 µM [rising, partial curve].

`Cc1cccc2cc(CN(CC3CCCO3)C(=O)c3ccco3)c(=O)[nH]c12` (configuration not stated): under setting [1], the concentration at half-maximal activity (AC50) is 6.31 µM [falling, single point].

`Cc1ccc(/C=N/NC(=O)CCCOc2ccc(Cl)cc2Cl)cc1`: the AC50 under setting [1] was 5.62 µM [rising, partial curve, poor fit].

For the molecule `CCCCn1c(N)c(NCc2ccccc2OC)c(=O)[nH]c1=O`, the AC50 under setting [2] is 3.16 µM [rising, partial curve].

In the case of `Cc1ccc(NC(=O)COC(=O)c2cc(-c3cccs3)nn2-c2ccccc2)cc1[N+](=O)[O-]`, the AC50 is, setting by setting: under setting [2], 0.0316 µM [falling, full curve, poor fit]; under setting [1], 0.00891 µM [falling, full curve, poor fit].

As to `CCN(CC)c1ccc(C(=S)N2CCN(c3ccccc3)CC2)cc1`, the AC50 under setting [2] is 35.5 µM [rising, single point] and the concentration at half-maximal activity (AC50) under setting [1] was 31.6 µM [rising, single point].

Take `COc1cccc2c1OC1(C)CC2NC(=O)N1c1cccc(C(=O)N2CCN(c3ccccn3)CC2)c1` (configuration not stated): the AC50 under setting [1] is 17.8 µM [rising, single point].

As to `Cc1ccc(Cl)cc1N1CCN(S(=O)(=O)c2cccc(S(=O)(=O)N3CCCC3)c2)CC1`, the AC50 by setting is: under setting [2], 20 µM [rising, single point]; under setting [1], 35.5 µM [rising, single point].

For the molecule `Cc1cccc(-c2cc(C(=O)Nc3ccc4c(c3)OCCO4)c3ccccc3n2)c1`, the AC50 under setting [2] is 2.82 µM [rising, partial curve].

`NC(=O)c1cnccn1`: the AC50 under setting [2] was 4.47 nM [falling, full curve, poor fit] and 3.55 nM [falling, full curve, poor fit].

Turning to `Cc1cccn2cc(-c3ccc(S(=O)(=O)N4CCOCC4)cc3)nc12`, the AC50 under setting [1] is 14.1 µM [rising, partial curve].

For the molecule `Cc1cccc(NC(=O)CN2C(=O)C3(SCC(=O)N3c3ccccc3)c3ccccc32)c1` (configuration not stated), the AC50 under setting [1] was 12.6 µM [rising, partial curve, poor fit].

Turning to `CCOC(=O)/C=C1\SCC(=O)N1CC(=O)Nc1cccc(F)c1`, under setting [1], the half-maximal activity concentration (AC50) was 35.5 µM [rising, single point].
